# Measurements as given in PubChem BioAssay AID540256 (National Center for Advancing Translational Sciences (NCATS), 2011).
# About 3,700 (1.2%) of roughly 300,000 compounds were called active. The inconclusive results got no clear call from the source; some entries with a clear call stand among them for comparison. Calls come from the whole dose curve; tested in HEK293 cells. A potency beside an inconclusive call is a rough fit, not a confirmed value.
# Test: qHTS for Inhibitors of binding or entry into cells for Lassa Virus; note: nearly all actives have a fitted effect of over 50% in size
# Details: Lassa virus pseudotype entry inhibition, cell reporter; series mostly up to 37.9 µM
# Potency is the fitted concentration of half-maximal effect.
row,SMILES,Potency
1,O=C1C2C(C(=O)N1/N=C/c1ccc([N+](=O)[O-])o1)C1C=CC2C12CC2 (stereo unspecified),"inconclusive: 29.1 µM [inhibitor, single point]"
2,O=C(COC(=O)CCc1c[nH]c(=O)[nH]1)Nc1cccc(Cl)c1,inactive
3,NC(=O)c1cc(Cc2ccccc2)sc1NC(=O)c1ccco1,"inconclusive: 0.184 µM [activator, full curve, poor fit]"
4,O=C(Nc1nc2cc3c(cc2s1)OCCO3)c1ccncc1,"inconclusive: 22.4 µM [inhibitor, single point]"
5,COC(=O)[C@H](NC(=O)c1cc(-c2ccccc2)nc2ccccc12)c1ccccc1,"inconclusive: 13 µM [inhibitor, partial curve, poor fit]"
6,Cn1cnc(S(=O)(=O)Nc2ccc(Cl)c(C(F)(F)F)c2)c1,inactive
7,CC1CCN(C(=O)C2CCCN(S(=O)(=O)c3cccc4nsnc34)C2)CC1 (stereo unspecified),inactive
8,CCc1ccc(NC(=S)NC2CCN(Cc3ccccc3)CC2)cc1,"inconclusive: 18.4 µM [inhibitor, partial curve, poor fit]"
9,CCCOc1ccc(OC(=O)Cc2ccc(OC)c(S(=O)(=O)N3CCOCC3)c2)cc1,inactive
10,COC(=O)c1ccc(-n2nnnc2SCC(=O)NCc2cccc(C(=O)O)c2)cc1,"inconclusive: 1.16 µM [activator, single point]"
11,O=C(NNc1ccccc1[N+](=O)[O-])Nc1ccccc1,inactive
12,CCc1ccccc1N1C(=O)/C(=C/c2ccc(N3CCN(C)CC3)o2)C(=O)NC1=S,inactive
13,CN(C)C(N)=NCCC[C@H](N)C(=O)O,"inconclusive: 29.1 µM [activator, partial curve, poor fit]"
14,CN(C)S(=O)(=O)c1cccc(NC(=O)Cc2ccc(-c3ccccc3)cc2)c1,"inconclusive: 3.98 µM [inhibitor, full curve]"
15,Cc1ccc([N+](=O)[O-])cc1Nc1nc(N2CCCC2)nc(N2CCCC2)n1,"inconclusive: 0.562 µM [activator, single point]"
16,O=C(CSc1ncnc2ccccc12)c1cccs1,"inconclusive: 12.6 µM [inhibitor, partial curve, poor fit]"
17,CN(CC(=O)Nc1ccc2c(c1)OCCO2)S(=O)(=O)c1ccc(Br)s1,inactive
18,CCN(c1cccc(C)c1)S(=O)(=O)c1ccc2[nH]c(=O)c(=O)[nH]c2c1,"inconclusive: 0.0073 µM [inhibitor, full curve, poor fit]"
19,CCOc1ccc2c(c1)-c1c(ssc1=S)C(C)(C)N2,"inconclusive: 9.2 µM [inhibitor, partial curve]"
20,C[C@@H](CN1CCC(Cc2ccccc2)CC1)[C@@H](O)c1ccc(O)cc1,"inconclusive: 20.6 µM [inhibitor, single point]"
21,CC1CCc2c(sc3ncnc(NCc4cccnc4)c23)C1 (stereo unspecified),inactive
22,Cc1nc(N2CCOCC2)c2c3c(sc2n1)CCC3,inactive
23,COCCn1c(SC(C)C(=O)NC2CC2)nnc1-c1cccc(C)c1 (stereo unspecified),inactive
24,CCCn1c2ccccc2c2cnn(CC(=O)NCCc3ccc(S(N)(=O)=O)cc3)c(=O)c21,inactive

# Single values from the entries so far.
# Value for CC1CCN(C(=O)C2CCCN(S(=O)(=O)c3cccc4nsnc34)C2)CC1 (stereo unspecified) under Potency: inactive
# Value for Cc1ccc([N+](=O)[O-])cc1Nc1nc(N2CCCC2)nc(N2CCCC2)n1 under Potency: inconclusive: 0.562 µM [activator, single point]
# Value for COC(=O)[C@H](NC(=O)c1cc(-c2ccccc2)nc2ccccc12)c1ccccc1 under Potency: inconclusive: 13 µM [inhibitor, partial curve, poor fit]
# Value for O=C(CSc1ncnc2ccccc12)c1cccs1 under Potency: inconclusive: 12.6 µM [inhibitor, partial curve, poor fit]
# Value for CCOc1ccc2c(c1)-c1c(ssc1=S)C(C)(C)N2 under Potency: inconclusive: 9.2 µM [inhibitor, partial curve]

# Additional records

row,SMILES,Potency
1,COc1ccc(NC(=O)CCCOc2cc(=O)n(C)c3ccccc23)c(OC)c1,inactive
2,COc1cccc(NC(=O)CCN2CCN(C)CC2)c1,"inconclusive: 3.66 µM [activator, partial curve]"
3,Cc1ccc(N2C(=O)C(Cl)=C(NCc3ccccc3)C2=O)c(C)c1,"inconclusive: 35.5 µM [activator, partial curve, poor fit]"
4,C/C(=N\Nc1nc2ccccc2[nH]1)c1ccc2c(c1)OCCO2,"inconclusive: 35.5 µM [inhibitor, single point]"
5,COc1ccc(CN2CCN(CC(O)Cn3c4ccccc4c4ccccc43)CC2)cc1 (stereo unspecified),inactive
6,CCOc1ccccc1CNC(=O)c1cnn(-c2ccc(C)cc2)c1-n1cccc1,"inconclusive: 14.1 µM [inhibitor, single point]"
7,CCN1CCN(CCCN(Cc2ccco2)C(=S)Nc2ccc(C)c(Cl)c2)CC1,"inconclusive: 31.6 µM [inhibitor, single point]"
8,CN=C1c2cc3c(Br)c(OC)ccc3n2CCN1C,"inconclusive: 13 µM [activator, partial curve, poor fit]"
9,Cc1ccc(NC(=O)CCN2C(=O)OC(C)(C)C2(C)O)cc1 (stereo unspecified),"inconclusive: 20 µM [activator, single point]"
10,Cc1ccc2c(CN3CCN(S(=O)(=O)c4ccc(Cl)cc4)CC3)cc(=O)oc2c1C,"inconclusive: 25.1 µM [inhibitor, single point]"
11,CC(C)c1onc(C(=O)NCc2ccc(Cl)cc2)c1[N+](=O)[O-],inactive
12,CCCN(CCC)S(=O)(=O)c1nc2nc(C)cc(C)n2n1,inactive
13,O=C(CSCC(=O)NN=Cc1ccccc1O)NN=Cc1ccccc1O,"inconclusive: 35.5 µM [inhibitor, single point]"
14,Cc1ccc(-c2nnn(CC(=O)N(CC(=O)NC3CCCCC3)c3ccc(F)c(Cl)c3)n2)o1,active: 12.6 µM
15,COc1ccc(Cn2c(C(=O)O)c(CNCc3ccco3)c3ccc(C)cc32)cc1,"inconclusive: 35.5 µM [inhibitor, single point]"
16,Cc1ccc(C)c(NC(=O)Nc2cc3c(cc2N2CCCCC2)n(C)c(=O)n3C)c1,"inconclusive: 1.78 µM [inhibitor, full curve, poor fit]"
17,COc1ccc(N2CCN(c3ccc(C(=O)O)cc3[N+](=O)[O-])CC2)cc1,"inconclusive: 35.5 µM [activator, single point]"
18,Fc1ccc(NC(=S)N2N=CCC2c2ccccc2)cc1 (stereo unspecified),"inconclusive: 4.61 µM [activator, full curve, poor fit]"
19,Cc1ccc(-n2ncc3c(=O)n(Cc4cccc(Cl)c4)cnc32)cc1C,"inconclusive: 31.6 µM [activator, single point]"
20,CN(C)c1cc(N)c2ccccc2n1 (tested in a mixture with another compound),"inconclusive: 2.06 µM [inhibitor, partial curve, poor fit]"
21,Nn1c(Nc2ccccc2)nc2ccccc21,inactive
22,O=C(Nc1ccc(Oc2ccc(NC(=O)Nc3ccccc3Cl)cc2)cc1)Nc1ccccc1Cl,"inconclusive: 3.16 µM [inhibitor, full curve, poor fit]"
23,COc1ccc(OCc2cc(C(=O)N3CCSCC3)no2)c(Cl)c1,inactive
24,O=C(NCC(=O)N1CCC(Cc2ccccc2)CC1)c1ccc(Cl)cc1,"inconclusive: 2.24 µM [inhibitor, full curve]"

row,SMILES,Potency
1,O=C(Cc1ccc(Cl)cc1)Nc1ccc(N2CCN(C(=O)c3ccco3)CC2)cc1,inactive
2,N#CCCn1cc(C(=O)O)c(-c2ccc3ccccc3c2)n1,inactive
3,C/C(=N\NC(=O)COc1ccc(C(C)(C)C)cc1)c1ccc(-n2ccnc2)cc1,"inconclusive: 35.5 µM [inhibitor, single point]"
4,Cc1cccc(C)c1Nc1sc(C(=O)c2ccccc2)c(N)c1S(=O)(=O)c1ccccc1,"inconclusive: 4.47 µM [inhibitor, full curve, poor fit]"
5,COc1ccc(N2CC(C(=O)NCCCN3CCOCC3)CC2=O)cc1 (stereo unspecified),"inconclusive: 9.2 µM [activator, partial curve, poor fit]"
6,O=c1[nH]c2ccc(NC(=S)Nc3ccccc3Cl)cc2[nH]1,inactive
7,CC(C)C(NCc1c(Cl)cccc1Cl)C(=O)O (stereo unspecified),inactive
8,CCS(=O)(=O)c1ncc(Cl)c(C(=O)Nc2ccc(S(=O)(=O)N(C)c3ccccc3)cc2)n1,"inconclusive: 12.6 µM [inhibitor, partial curve, poor fit]"
9,COc1ccc(NC(=O)CN(C)CC(=O)Nc2cccc(F)c2)cc1S(=O)(=O)N1CCCCC1,inactive
10,O=C(COc1ccc(Cl)cc1)N1CCCCC1,"inconclusive: 20.6 µM [activator, single point]"
11,Cc1nn(-c2ccc(N3CCOCC3)nn2)c(C)c1CCC(=O)NCc1ccc(Cl)cc1,inactive
12,OC(CCNCCc1c[nH]c2ccccc12)C(F)(F)F (stereo unspecified),"inconclusive: 5.01 µM [activator, partial curve, poor fit]"
13,c1ccc(-n2ncc3c(N4CCC5(CC4)OCCO5)ncnc32)cc1,"inconclusive: 6.31 µM [activator, single point]"
14,O=c1cc(Br)c(O)c(Br)cc1Br,inactive
15,O=C(Cc1ccc(Cl)c(Cl)c1)N/N=C/c1cccnc1,inactive
16,O=C(Nc1ccc2oc(-c3ccc4ccccc4c3)nc2c1)c1cccs1,"inconclusive: 6.31 µM [activator, single point]"
17,O=C(Cn1cc(SCc2ccccc2Cl)c2ccccc21)N1CCOCC1,"inconclusive: 6.31 µM [activator, single point]"
18,C/C(CC(=O)Nc1cccnc1)=N\NC(=O)C(C)Oc1ccc(Cl)cc1Cl (stereo unspecified),inactive
19,Brc1ccc(-c2csc3[n+]2CCCCC3)cc1,"inconclusive: 6.31 µM [inhibitor, single point]"
20,COc1ccccc1NC(=O)/C=C/c1ccc2c(c1)OCO2,"inconclusive: 5.8 µM [inhibitor, partial curve]"
21,CCOC(=O)Cc1csc(NC(=O)CSc2nc3cccnc3n2CC)n1,"inconclusive: 0.224 µM [activator, full curve, poor fit]"
22,CCOC(=O)c1c(-c2cccs2)csc1NC(C)=O,inactive
23,COc1cccc(-c2cc(=O)c3cc(NC(=O)c4ccccc4)ccc3[nH]2)c1,"inconclusive: 6.51 µM [inhibitor, single point]"
